The assay has as its target T1, FLU-GG-….
T1 sequence (peptide, fluorescein (FLU / FAM) on the N-terminus): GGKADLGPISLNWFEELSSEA
The assay can be described thus: fluorescence polarisation; direct: PALB2C serially diluted from 4.4 μM, fluorescent peptide 10 nM; 20 mM HEPES, 100 mM NaCl, 1 mM DTT, 1 mM EDTA, 0.01% IGEPAL CA-630; 20 min at RT in the dark, read at 25 °C; both purified.

Results are given in words; binding and its absence hold for the method and conditions named. Some binding calls cover weakened binding; strength is not graded here.

B1: PALB2 C-terminal WD40 domain (domain or fragment, UniProt Q86YC2 835-1186)
chain: SVEQTETAELPASDSINPGNLQLVSELKNPSGSCSVDVSAMFWERAGCKEPCIITACEDVVSLWKALDAWQWEKLYTWHFAEVPVLQIVPVPDVYNLVCVALGNLEIREIRALFCSSDDESEKQVLLKSGNIKAVLGLTKRRLVSSSGTLSDQQVEVMTFAEDGGGKENQFLMPPEETILTFAEVQGMQEALLGTTIMNNIVIWNLKTGQLLKKMHIDDSYQASVCHKAYSEMGLLFIVLSHPCAKESESLRSPVFQLIVINPKTTLSVGVMLYCLPPGQAGRFLEGDVKDHCAAAILTSGTIAIWDLLLGQCTALLPPVSDQHWSFVKWSGTDSHLLAGQKDGNIFVYHYS
Take B1: the binding result is recorded as “binds”.
